The data set has as its target T1, FadR (Thermus thermophilus HB8) (UniProt Q5SM42).
T1 sequence (looked up, limits assumed): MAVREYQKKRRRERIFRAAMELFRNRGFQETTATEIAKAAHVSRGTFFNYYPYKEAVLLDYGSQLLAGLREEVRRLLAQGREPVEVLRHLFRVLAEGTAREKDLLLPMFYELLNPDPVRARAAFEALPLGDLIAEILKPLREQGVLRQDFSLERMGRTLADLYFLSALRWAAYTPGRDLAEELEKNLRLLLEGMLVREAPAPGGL
In words: EMSA. The settings on record: FadR titrations up to 600 nM, IRD700-labeled probes; recombinant protein; label: IRD700. For orientation: Mobility shift assays separate free from complexed probe on a gel.

pKd: −log10 of the molar value. The exact form of at least one protein or probe is not confirmed. Protein sequences can lack the tags named with them.

The results in this text go back to paper PMC5597230, “Identification and characterization of preferred DNA-binding sites for the Thermus thermophilus transcriptional regulator FadR”.

The term pKd denotes the negative decadic logarithm of the Kd, by convention in mol/L. As for “AGGAATTCGTGCAGAGGTGAATTGGGACTTAGTCCAATTACCATCCCTCCAGAAGCTTGG (double strand) [ST2_FadR_R5_m2]”, the pKd is < 6.52.

As for “AGGAATTCGTGCAGAGGTGAATTTTGACTGAGTATAATTACCATCCCTCCAGAAGCTTGG (double strand) [ST2_FadR_TTHA0890]”, the pKd was 8.59.

In the case of “AGGAATTCGTGCAGAGGTGAATTTGGAATTAGTCCAATTACCATCCCTCCAGAAGCTTGG (double strand) [ST2_FadR_R5_m6]”, the pKd was < 6.52.
